Some of the results follow.
compound: C1=CC=C(C=C1)C2=NC(=C(N2)C3=CC=NC=C3)C4=CC(=C(C=C4)Cl)O; experiment: log2 fold change, soluble protein after heating vs DMSO (PISA); higher = thermal stabilisation; K562 cells, 10 uM, 30 min; active = over 0.2 and 3.5 SD of the protein, either way, in both replicates (recomputed)
Summary of the method: (§1)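 Soluble protein was defined as the supernatant after 21,000xg for 90 min. It came from K562 cells at 2×10^6 cells/mL given 10 μM compound for 30 min, heated in aliquots for 3 min across 48°C-58°C, pooled, and extracted in PBS with 0.5% NP-40 at 4°C, and was quantified by TMTpro 16plex LC-MS/MS with equalised channel sums. Thermal stability against control samples, from duplicates, is reported as log2 fold change.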

By UniProt entry, the sequences of proteins in these tests, tags left out. Where a name states a change or a piece, a line headed by the entry shows the natural chain unless it says otherwise.
UniProt Q02880: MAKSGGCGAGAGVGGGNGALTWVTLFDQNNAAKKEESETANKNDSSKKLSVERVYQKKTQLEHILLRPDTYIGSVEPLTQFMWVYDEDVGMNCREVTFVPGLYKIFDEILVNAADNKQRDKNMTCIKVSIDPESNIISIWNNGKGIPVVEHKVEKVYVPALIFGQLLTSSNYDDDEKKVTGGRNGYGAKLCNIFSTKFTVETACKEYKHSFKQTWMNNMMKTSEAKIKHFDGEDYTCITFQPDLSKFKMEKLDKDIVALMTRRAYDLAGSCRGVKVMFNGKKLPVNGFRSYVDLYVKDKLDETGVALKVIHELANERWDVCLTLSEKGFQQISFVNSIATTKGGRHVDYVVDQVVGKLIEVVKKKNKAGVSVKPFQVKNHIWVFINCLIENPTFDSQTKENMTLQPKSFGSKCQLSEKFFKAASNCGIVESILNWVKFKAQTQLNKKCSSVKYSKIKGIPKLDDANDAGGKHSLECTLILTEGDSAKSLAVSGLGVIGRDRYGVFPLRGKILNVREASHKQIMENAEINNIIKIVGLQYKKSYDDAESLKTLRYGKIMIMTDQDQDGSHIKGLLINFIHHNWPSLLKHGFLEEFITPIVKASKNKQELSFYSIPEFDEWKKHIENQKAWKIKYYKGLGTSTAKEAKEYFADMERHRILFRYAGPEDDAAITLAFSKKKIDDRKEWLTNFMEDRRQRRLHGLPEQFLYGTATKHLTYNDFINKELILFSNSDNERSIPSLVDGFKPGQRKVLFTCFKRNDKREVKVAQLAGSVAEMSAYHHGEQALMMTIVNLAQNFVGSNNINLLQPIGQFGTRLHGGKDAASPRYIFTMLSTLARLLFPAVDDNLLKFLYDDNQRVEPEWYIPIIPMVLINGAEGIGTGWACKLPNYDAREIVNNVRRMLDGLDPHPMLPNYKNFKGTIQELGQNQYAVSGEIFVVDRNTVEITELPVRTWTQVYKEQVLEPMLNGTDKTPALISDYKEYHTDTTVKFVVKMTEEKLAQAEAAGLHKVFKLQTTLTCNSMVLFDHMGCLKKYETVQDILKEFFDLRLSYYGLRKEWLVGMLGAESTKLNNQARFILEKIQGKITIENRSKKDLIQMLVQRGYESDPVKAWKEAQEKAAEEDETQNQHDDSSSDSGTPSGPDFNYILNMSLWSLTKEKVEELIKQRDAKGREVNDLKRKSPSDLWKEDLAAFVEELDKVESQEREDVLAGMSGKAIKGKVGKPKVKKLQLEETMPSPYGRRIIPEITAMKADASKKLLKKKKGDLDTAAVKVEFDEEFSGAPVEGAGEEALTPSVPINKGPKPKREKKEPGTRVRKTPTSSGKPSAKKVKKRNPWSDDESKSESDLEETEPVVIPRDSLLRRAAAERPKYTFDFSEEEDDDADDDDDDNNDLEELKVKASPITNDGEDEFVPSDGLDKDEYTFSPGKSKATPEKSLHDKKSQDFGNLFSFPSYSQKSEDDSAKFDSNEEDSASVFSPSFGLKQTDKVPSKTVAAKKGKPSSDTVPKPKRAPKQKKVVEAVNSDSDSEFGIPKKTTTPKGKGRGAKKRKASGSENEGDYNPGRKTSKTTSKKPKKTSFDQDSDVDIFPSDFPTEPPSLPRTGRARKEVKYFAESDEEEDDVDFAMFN
UniProt Q9UKE5: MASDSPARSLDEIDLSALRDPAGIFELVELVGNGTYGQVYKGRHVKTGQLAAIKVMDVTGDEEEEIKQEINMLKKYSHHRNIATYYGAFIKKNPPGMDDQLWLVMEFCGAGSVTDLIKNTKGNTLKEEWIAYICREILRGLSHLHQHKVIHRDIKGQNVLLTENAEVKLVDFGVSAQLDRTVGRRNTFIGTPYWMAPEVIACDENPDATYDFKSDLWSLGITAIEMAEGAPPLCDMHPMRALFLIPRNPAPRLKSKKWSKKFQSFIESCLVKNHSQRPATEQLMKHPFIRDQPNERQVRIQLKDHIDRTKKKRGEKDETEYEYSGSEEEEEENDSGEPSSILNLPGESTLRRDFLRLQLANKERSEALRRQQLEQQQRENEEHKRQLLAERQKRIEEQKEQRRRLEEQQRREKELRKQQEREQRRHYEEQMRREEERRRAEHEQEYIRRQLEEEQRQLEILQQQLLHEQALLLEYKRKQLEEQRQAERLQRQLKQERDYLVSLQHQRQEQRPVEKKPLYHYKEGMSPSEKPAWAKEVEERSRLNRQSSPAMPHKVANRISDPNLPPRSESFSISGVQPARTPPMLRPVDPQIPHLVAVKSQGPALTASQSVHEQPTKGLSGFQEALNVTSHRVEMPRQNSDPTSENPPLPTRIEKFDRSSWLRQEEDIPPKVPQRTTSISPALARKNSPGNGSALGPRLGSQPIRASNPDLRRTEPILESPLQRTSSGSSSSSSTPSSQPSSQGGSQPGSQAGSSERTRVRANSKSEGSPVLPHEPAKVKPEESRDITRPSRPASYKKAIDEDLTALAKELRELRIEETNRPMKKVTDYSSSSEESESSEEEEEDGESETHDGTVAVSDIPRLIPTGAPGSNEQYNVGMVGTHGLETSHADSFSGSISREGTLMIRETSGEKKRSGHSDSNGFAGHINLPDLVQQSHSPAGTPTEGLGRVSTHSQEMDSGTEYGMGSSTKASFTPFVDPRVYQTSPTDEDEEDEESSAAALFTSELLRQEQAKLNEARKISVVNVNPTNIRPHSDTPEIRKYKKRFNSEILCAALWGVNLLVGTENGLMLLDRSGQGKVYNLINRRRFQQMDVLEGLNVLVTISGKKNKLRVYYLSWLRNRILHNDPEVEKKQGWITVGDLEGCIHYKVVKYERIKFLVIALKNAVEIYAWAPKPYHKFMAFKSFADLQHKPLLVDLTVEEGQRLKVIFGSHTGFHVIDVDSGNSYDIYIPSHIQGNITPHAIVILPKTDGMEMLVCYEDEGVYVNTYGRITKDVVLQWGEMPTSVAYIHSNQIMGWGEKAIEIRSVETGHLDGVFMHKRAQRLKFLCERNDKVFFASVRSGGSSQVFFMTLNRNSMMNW
UniProt Q9NXH8: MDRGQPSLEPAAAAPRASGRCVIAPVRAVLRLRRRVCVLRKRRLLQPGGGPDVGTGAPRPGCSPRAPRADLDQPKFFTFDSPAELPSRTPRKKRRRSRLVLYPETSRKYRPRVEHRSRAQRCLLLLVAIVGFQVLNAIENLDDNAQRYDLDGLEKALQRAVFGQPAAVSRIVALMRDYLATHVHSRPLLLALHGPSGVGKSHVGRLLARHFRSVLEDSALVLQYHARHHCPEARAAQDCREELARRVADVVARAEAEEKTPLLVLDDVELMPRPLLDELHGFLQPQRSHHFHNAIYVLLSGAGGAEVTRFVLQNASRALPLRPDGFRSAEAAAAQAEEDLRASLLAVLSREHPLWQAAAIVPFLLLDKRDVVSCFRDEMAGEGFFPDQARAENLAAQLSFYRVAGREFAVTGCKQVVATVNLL
UniProt P13693: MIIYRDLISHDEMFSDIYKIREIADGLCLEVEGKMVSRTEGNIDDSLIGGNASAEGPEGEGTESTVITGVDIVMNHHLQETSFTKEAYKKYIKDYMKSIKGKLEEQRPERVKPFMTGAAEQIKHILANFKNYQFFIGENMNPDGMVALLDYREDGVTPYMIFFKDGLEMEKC
UniProt Q9NS69: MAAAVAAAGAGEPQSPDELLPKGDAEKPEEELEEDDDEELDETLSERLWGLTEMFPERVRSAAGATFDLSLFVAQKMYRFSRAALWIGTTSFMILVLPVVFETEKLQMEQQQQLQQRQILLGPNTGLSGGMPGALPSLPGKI
UniProt Q9Y3Q8: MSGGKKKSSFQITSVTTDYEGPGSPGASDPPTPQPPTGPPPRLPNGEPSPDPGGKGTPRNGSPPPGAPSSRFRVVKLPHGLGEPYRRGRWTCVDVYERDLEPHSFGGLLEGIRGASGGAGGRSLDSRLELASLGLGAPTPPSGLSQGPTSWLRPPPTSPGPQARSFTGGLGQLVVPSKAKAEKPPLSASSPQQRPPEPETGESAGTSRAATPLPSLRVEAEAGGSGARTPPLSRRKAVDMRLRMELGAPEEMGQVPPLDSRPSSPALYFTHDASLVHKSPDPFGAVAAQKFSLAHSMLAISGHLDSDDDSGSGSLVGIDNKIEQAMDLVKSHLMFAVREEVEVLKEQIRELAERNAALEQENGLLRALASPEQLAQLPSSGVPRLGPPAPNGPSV
UniProt Q8WW01: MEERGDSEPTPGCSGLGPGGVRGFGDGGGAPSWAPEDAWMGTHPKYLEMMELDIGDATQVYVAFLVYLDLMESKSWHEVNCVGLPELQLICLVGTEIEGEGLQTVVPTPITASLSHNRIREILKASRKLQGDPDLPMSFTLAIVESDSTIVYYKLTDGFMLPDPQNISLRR
UniProt O15164: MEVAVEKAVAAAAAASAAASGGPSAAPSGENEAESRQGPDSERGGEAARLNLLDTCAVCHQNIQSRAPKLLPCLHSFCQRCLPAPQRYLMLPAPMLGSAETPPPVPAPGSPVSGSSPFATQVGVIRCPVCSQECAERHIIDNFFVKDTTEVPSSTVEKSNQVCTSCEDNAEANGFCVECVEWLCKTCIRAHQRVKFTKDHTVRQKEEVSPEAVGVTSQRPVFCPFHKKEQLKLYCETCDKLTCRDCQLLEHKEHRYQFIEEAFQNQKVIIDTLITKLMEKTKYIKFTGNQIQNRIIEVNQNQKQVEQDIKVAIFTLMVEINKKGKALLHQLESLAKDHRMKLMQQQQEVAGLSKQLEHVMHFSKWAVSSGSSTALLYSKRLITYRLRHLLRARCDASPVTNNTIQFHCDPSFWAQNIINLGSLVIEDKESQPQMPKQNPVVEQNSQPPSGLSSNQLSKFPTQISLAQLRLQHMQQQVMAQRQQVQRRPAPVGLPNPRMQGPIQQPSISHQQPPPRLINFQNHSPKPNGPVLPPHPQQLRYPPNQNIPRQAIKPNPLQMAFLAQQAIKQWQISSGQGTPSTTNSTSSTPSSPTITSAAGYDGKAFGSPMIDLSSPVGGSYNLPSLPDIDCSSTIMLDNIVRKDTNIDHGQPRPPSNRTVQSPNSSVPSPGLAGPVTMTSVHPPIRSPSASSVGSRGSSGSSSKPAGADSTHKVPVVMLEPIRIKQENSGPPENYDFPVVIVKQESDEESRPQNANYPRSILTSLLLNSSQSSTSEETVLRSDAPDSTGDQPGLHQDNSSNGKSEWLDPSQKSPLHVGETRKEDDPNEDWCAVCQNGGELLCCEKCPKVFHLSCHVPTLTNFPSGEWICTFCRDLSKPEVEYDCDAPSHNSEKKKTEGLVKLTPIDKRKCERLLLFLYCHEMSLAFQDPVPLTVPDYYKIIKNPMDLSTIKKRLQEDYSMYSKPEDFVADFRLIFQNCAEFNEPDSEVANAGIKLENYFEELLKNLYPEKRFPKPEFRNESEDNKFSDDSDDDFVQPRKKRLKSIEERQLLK
UniProt Q9BSV6: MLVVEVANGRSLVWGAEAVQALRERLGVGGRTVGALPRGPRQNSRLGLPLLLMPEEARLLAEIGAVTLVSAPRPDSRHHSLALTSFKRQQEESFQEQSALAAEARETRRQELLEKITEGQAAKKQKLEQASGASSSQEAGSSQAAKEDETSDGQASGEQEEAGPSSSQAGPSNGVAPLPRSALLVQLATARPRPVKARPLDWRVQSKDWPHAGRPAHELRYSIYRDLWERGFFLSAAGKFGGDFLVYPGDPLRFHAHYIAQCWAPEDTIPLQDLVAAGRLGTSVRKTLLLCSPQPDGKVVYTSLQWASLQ
UniProt O43715: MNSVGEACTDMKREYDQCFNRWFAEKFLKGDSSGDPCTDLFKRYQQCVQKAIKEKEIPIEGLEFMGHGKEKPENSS
UniProt Q96S44: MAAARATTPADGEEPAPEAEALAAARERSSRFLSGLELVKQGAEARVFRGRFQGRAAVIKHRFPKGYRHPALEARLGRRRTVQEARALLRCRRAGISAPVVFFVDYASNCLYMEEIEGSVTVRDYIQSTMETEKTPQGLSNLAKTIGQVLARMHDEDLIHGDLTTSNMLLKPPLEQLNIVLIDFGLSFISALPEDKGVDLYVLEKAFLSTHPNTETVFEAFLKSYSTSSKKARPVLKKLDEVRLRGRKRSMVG
UniProt O94826, whole entry, looked up: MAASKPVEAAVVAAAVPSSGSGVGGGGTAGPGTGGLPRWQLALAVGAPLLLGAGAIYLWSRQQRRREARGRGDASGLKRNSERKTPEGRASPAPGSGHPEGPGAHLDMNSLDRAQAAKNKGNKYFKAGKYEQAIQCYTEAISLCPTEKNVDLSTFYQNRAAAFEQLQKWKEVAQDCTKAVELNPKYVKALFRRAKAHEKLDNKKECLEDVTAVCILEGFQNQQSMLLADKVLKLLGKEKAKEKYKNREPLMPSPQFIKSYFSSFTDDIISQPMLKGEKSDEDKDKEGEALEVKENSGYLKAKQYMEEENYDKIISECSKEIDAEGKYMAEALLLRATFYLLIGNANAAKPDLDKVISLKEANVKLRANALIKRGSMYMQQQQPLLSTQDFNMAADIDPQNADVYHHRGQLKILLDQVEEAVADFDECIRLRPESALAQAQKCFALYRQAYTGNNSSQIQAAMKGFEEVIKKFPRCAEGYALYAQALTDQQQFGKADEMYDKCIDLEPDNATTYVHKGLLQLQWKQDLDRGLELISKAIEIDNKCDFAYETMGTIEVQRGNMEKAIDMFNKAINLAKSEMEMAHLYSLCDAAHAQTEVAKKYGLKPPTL

log2 fold change, inactive:
TOMM40 (UniProt O96008) -0.017
TOP2B (UniProt Q02880) 0.05
TNIK isoform 6 (UniProt Q9UKE5) -0.043
TOR4A (UniProt Q9NXH8) 0.093
TOP1 (UniProt P11387) 0.177
TPM4, A0A2R8Y5V9 -0.051
TRAF6 (UniProt Q9Y4K3) -0.019
TRRAP (UniProt Q9Y4A5) -0.002
TOP3B (UniProt O95985) -0.01
TNFRSF1B (UniProt P20333) 0.053
TPT1 (UniProt P13693) 0.048
TRMT61B (UniProt Q9BVS5) -0.022
TOLLIP (UniProt Q9H0E2) 0.005
TOR1AIP2 (UniProt Q8NFQ8) -0.014
TPM3 isoform 4 (UniProt P06753) -0.05
TOR3A (UniProt Q9H497) -0.046
TOMM22 (UniProt Q9NS69) 0.086
TSC22D4 (UniProt Q9Y3Q8) -0.011
TSEN15 (UniProt Q8WW01) 0.039

compound: C1=CC=C2C(=C1)C3=NNC4=CC=CC(=C43)C2=O; experiment: as above
Summary of the method: as §1

log2 fold change, inactive:
TRIM25 (UniProt Q14258) 0.01
TOMM34 (UniProt Q15785) 0.005
TRIP11 (UniProt Q15643) -0.093
TRIM24 (UniProt O15164) -0.069
TPP2 (UniProt P29144) 0.123
TSEN34 (UniProt Q9BSV6) -0.028
TRIAP1 (UniProt O43715) 0.03
TP53RK (UniProt Q96S44) 0.024
TRIP13 (UniProt Q15645) -0.002
TRIO (UniProt O75962) -0.054
TSC22D2 (UniProt O75157) 0.013
TRAPPC10 (UniProt P48553) -0.008
TRMT112 (UniProt Q9UI30) 0.057
TOMM70 (UniProt O94826) 0.039
TOMM40 (UniProt O96008) 0.022
TOP2B (UniProt Q02880) 0.017
TNIK isoform 6 (UniProt Q9UKE5) 0.004
TOR4A (UniProt Q9NXH8) 0.043
TOP1 (UniProt P11387) 0.168
TPM4, A0A2R8Y5V9 0.04
TRAF6 (UniProt Q9Y4K3) 0.06
TRRAP (UniProt Q9Y4A5) -0.036
TOP3B (UniProt O95985) -0.002
TNFRSF1B (UniProt P20333) -0.048
TPT1 (UniProt P13693) 0.03
TRMT61B (UniProt Q9BVS5) -0.026
TOLLIP (UniProt Q9H0E2) 0.011
TOR1AIP2 (UniProt Q8NFQ8) -0.031
TPM3 isoform 4 (UniProt P06753) -0.086
TOR3A (UniProt Q9H497) -0.041
TOMM22 (UniProt Q9NS69) 0.036
TSC22D4 (UniProt Q9Y3Q8) -0.007
TSEN15 (UniProt Q8WW01) -0.156
